Experimental data from patent publication US9101562B2, “Additives for chlorine dioxide-containing compositions” (BASF CORPORATION, priority 2010, dated 2015).
For at least one compound, name, drawing or mass did not settle the structure.

Legend:
[1] = Chlorine dioxide compatibility: ClO2 decrease in 200 ppm ClO2 test samples containing an additive (UV/Vis absorption or titration); type: physicochemical
[2] = Table 2; solubility in water, Y/N

CCCCCCCCCCCCCCCC[n+]1ccccc1 [compound 11, Cetylpyridinium Chloride]
ClO2 decrease @ 8 hrs [1]: 4%

CC(O)CO (centres unmarked) [compound 13, Propylene Glycol]
Solubility [2]: Y
